# Assay results from PMC5996148.
# This is one part of the list. For some of these results: The source does not settle which construct or isoform was used.
# Assays:
# Test in all cases: protein microarray (ProtoArray v5.0), streptavidin-Alexa Fluor 647
# Details in all cases: 3'-biotin; 20 mM Tris (pH 7.5), 5 mM MgCl2, 100 mM KCl, 0.1% Tween-20, A/T-rich and random oligonucleotide blockers; temperature not stated; high values mean tight binding
# IL32 (human) = system: IL32 (human)
# IL5 (human) = system: IL5 (human)
# IL7 (human) = system: IL7 (human)
# ILVBL (human) = system: ILVBL (human)
# INDO (human) = system: INDO (human)
# ING3 (human) = system: ING3 (human)
# INPP1 (human) = system: INPP1 (human)
# INVS (human) = system: INVS (human)
# IPPK = target: T1, IPPK (UniProt Q9H8X2)
# T1 sequence: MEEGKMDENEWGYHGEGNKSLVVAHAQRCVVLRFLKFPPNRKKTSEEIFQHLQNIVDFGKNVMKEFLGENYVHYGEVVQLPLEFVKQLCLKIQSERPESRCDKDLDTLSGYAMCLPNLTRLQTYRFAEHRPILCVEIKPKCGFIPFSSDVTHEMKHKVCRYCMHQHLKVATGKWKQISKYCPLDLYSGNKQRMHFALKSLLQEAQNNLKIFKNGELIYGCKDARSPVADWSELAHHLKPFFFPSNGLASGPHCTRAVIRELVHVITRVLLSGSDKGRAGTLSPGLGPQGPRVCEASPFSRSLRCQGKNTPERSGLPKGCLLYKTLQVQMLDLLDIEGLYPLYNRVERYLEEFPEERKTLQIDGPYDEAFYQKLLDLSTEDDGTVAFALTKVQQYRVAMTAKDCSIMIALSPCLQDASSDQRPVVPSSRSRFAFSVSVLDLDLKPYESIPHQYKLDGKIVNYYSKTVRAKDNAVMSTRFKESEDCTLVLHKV
# IRF3 (human) = system: IRF3 (human)
sequence,measurement,setting,value
GGGGACAGGGGTATGGGGAGGGG [G4-3 biotinylated (CtG)],binding signal,IL32 (human),-0.308 z-score
same,binding signal,IL5 (human),-0.334 z-score
same,binding signal,IL7 (human),-0.327 z-score
same,binding signal,ILVBL (human),-0.321 z-score
same,binding signal,INDO (human),-0.335 z-score
same,binding signal,ING3 (human),-0.316 z-score
same,binding signal,INPP1 (human),-0.328 z-score
same,binding signal,INVS (human),-0.316 z-score
same,binding signal,IPPK,3.42 z-score
same,binding signal,IRF3 (human),-0.301 z-score
